## Screening data

Source: PubChem BioAssay AID1508623 (NCATS, 2021).

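Change in HTT-promoter-driven luminescence in engineered HEK293 reporter cells after a 24 h treatment, measured at one concentration. Percent change in reporter signal versus vehicle (0%) down to no light (-100%); more negative values mean stronger inhibition of promoter activity.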

Values are in %. Common to all entries: at 57.5 µM (top of the series). Only part of the assay is listed here, not a random draw.

| # | structure | activity change (%) |
|---|---|---|
| 1 | `O=C(NCc1ccccc1Cl)c1cnc2sc(N3CCCCC3)nn2c1=O` | -14.78 |
| 2 | `COc1cccc(CNS(=O)(=O)c2ccc3c(c2)CC(C)N3C(=O)C2CCC2)c1` (configuration not stated) | -97.09 |
| 3 | `CCc1ccc(NS(=O)(=O)c2ccc(-c3cc(C)no3)cc2)cc1` | -54.26 |
| 4 | `Cc1c(CCC(=O)NCCc2ccccc2)c(=O)oc2cc(O)ccc12` | -24.03 |
| 5 | `COc1ccc(NC(c2ccc(F)cc2)c2nnc(-c3ccccc3Cl)o2)cc1Cl` (configuration not stated) | -42.47 |
| 6 | `COc1cccc(-c2cc(C(=O)Nc3cc(C)nn3-c3ccccc3)no2)c1` | -20.83 |
| 7 | `CCc1ccc(NC(=O)CC2C(=O)N(c3cccc(OC)c3)C(=O)N2C2CCCC2)cc1` (configuration not stated) | -39.71 |
| 8 | `CCc1c(C)sc(NC(=O)c2cc(-c3ccc(OC)cc3)on2)c1C#N` | -11.88 |
| 9 | `COc1ccccc1-c1cc(C(=O)Nc2ccccc2C(F)(F)F)no1` | 15.96 |
| 10 | `Cc1ccc(Cl)c2c1N[C@@H](c1ccc(C(=O)O)cc1)[C@H]1CC=C[C@@H]21` | -11.2 |
| 11 | `CC(C)c1cc(C(=O)NC(C)c2ccccc2)no1` (configuration not stated) | -6.954 |
| 12 | `COc1ccc(NC(=O)c2c(C)oc3ccc(O)c(CN4CCC(C)CC4)c23)cc1Cl` | -38.92 |
| 13 | `COc1cc(-c2nnc(SCCOc3ccc(Cl)cc3C)o2)cc(OC)c1OC` | -5.965 |
| 14 | `Cc1nn(-c2ccc(N3CCCC3)nn2)c(C)c1CCC(=O)N1CCN(c2ccc(F)cc2)CC1` | -34.47 |
| 15 | `COC(=O)c1cc2oc3ccccc3c2n1Cc1nc(-c2ccc(Cl)cc2)oc1C` | -13.26 |
| 16 | `CCOC(=O)c1c(C)n(S(=O)(=O)c2ccc(C)cc2)c2ccc(NS(=O)(=O)c3ccc(C)cc3)cc12` | -42.07 |
| 17 | `Cc1cc(=O)n2c(C(=O)Nc3ccc(C)c(C)c3)c(C(=O)Nc3ccccc3)sc2n1` | -21.57 |
| 18 | `COc1ccc(O)c(C2Nc3ccccc3-n3c(-c4ccccc4)c4c(=O)n(C)c(=O)n(C)c4c32)c1` (configuration not stated) | -25.57 |
| 19 | `CCc1ccccc1NC(=O)c1noc2c1CC(C(C)(C)C)CC2` (configuration not stated) | -12.28 |
| 20 | `Cc1ccc(NC(=O)CSc2nc(-c3ccc(C(C)(C)C)cc3)nc3cc(=O)[nH]n23)cc1C` | -23.71 |
| 21 | `Cc1nc2ccn(Cc3ccco3)c(=O)c2cc1C(=O)Nc1ccc(F)cc1` | -44.05 |
| 22 | `CC(=O)c1ccc(S(=O)(=O)Nc2cccc(-c3ccc(N4CCCCC4)nn3)c2)cc1` | 18.79 |
| 23 | `O=C(CC1C(=O)N(c2ccc(F)cc2)C(=O)N1Cc1cccnc1)Nc1ccc(F)cc1` (configuration not stated) | -11.8 |
| 24 | `COc1ccc(N2C(=O)Cc3cc(OC)c(OC)cc3C2c2ccc(F)cc2)cc1` (configuration not stated) | -30.48 |
| 25 | `CNC(=O)c1ccc(Nc2nnc(-c3ccc(C)c(S(=O)(=O)N4CCCCC4)c3)c3ccccc23)cc1` | -16.79 |
| 26 | `COc1ccc(NC(=O)c2c(C(=O)Nc3ccccc3)sc3nc(C)cc(=O)n23)cc1` | -12.13 |
| 27 | `CCc1nn(CC(=O)NC(C)CCc2ccccc2)c(=O)c2cc3cc(F)ccc3n12` (configuration not stated) | -0.5245 |
| 28 | `CCCOc1ccc(NC(=O)CC2C(=O)N(c3ccc(C)cc3)C(=O)N2C(C)C)cc1` (configuration not stated) | -25.23 |
| 29 | `Cc1cccc(OCCOCCn2c(-c3ccc(Cl)cc3)nc3ccccc3c2=O)c1C` | 25.63 |
| 30 | `COc1ccc2c(C)c(CCC(=O)NCc3ccc(Cl)cc3)c(=O)oc2c1C` | -19.54 |
| 31 | `CC(C)c1ccccc1NC(=O)Cn1cnc2c1c(=O)n(C)c(=O)n2C` | -17.88 |
| 32 | `COc1ccc(C2C(=O)N(C3CCCCCC3)CC(=O)N2Cc2ccccc2)cc1` (configuration not stated) | -34.82 |
| 33 | `Cn1c(=O)c2c(ncn2CC(=O)Nc2cccc(C(F)(F)F)c2)n(C)c1=O` | -27.99 |
| 34 | `COc1cccc(-c2cc(C(=O)NCc3ccccc3)no2)c1` | 5.142 |
| 35 | `Cc1ccc(-n2nc(C)c(C(=O)NCCCN3CCN(c4ccccc4F)CC3)c2-n2cccc2)cc1` | -67.95 |
| 36 | `Cc1nn(-c2ccc(N3CCCC3)nn2)c(C)c1CCC(=O)N1CCN(c2ccccc2F)CC1` | -31.77 |
| 37 | `O=C(NCc1ccccc1)c1nc(-c2ccc(Cl)cc2)n2c1CCCCC2` | -41.82 |
| 38 | `CCCCc1ccc(NC(=O)c2cc(-c3ccc(C)c(F)c3)on2)cc1` | -16.58 |
| 39 | `Cc1ccc(N2CCN(c3nc4ccc(C)cc4n4nnnc34)CC2)c(C)c1` | -9.804 |
| 40 | `CCOc1ccc(C2C(=O)N(C3CCCCCC3)CC(=O)N2CCc2ccc(Cl)cc2)cc1OC` (configuration not stated) | -53.52 |
| 41 | `CCOC(=O)c1c(NC(=O)c2cc(CC(C)C)on2)sc(C(C)=O)c1C` | -13.3 |
| 42 | `Cn1c(=O)n(C)c2cc(N3CCOCC3)c(NC(=O)c3ccc(C(C)(C)C)cc3)cc21` | -3.381 |
| 43 | `COc1ccc(S(=O)(=O)Nc2cccc(-c3ccc(N4CCCC4)nn3)c2)cc1OC` | -1.905 |
| 44 | `O=S(=O)(Nc1cccc(-c2ccc(N3CCOCC3)nn2)c1)c1ccc(F)cc1F` | 11.26 |
| 45 | `O=S(=O)(Nc1cccc(-c2ccc(N3CCCC3)nn2)c1)c1ccccc1C(F)(F)F` | -13.87 |
| 46 | `COc1ccc(S(=O)(=O)N(CCc2ccccc2)CC(=O)NCc2ccccc2)cc1OC` | -35.49 |
| 47 | `O=S(=O)(Nc1ccc(-c2ccc(N3CCCC3)nn2)cc1)c1ccc(C(F)(F)F)cc1` | -19.41 |
| 48 | `Cc1c(NC(=O)c2cc(-c3ccc(Cl)c(Cl)c3)on2)c(=O)n(-c2ccccc2)n1C` | -16.21 |
| 49 | `Cc1nc(SCC(=O)OC(C)(C)C)c2c3c(sc2n1)CCCC3` | -7.135 |
| 50 | `COc1cc(C2CC(=O)Nc3ccc4ccccc4c32)ccc1OC(=O)C(C)C` (configuration not stated) | -40.71 |
| 51 | `Cc1ccc(CN2C(=O)CN(C3CCC(C)CC3)C(=O)C2c2ccc(F)cc2)cc1` (configuration not stated) | -24.89 |
| 52 | `CC1CCC(N2CC(=O)N(C3CCCCC3)C(c3ccc(Cl)cc3)C2=O)CC1` (configuration not stated) | -15.1 |
| 53 | `Cc1oc2c(cc(NS(=O)(=O)c3ccc(Cl)cc3)c3ccccc32)c1C(=O)OCc1ccccc1` | -18.69 |
| 54 | `Cc1ccc(C(=O)Nc2cccc(-c3nc4ccccc4o3)c2)c(Cl)c1` | -15.6 |
| 55 | `COc1ccc(Br)cc1CNC(=O)c1cnc2sc(N3CCC(C)CC3)nn2c1=O` | -9.131 |
| 56 | `Cc1cc(S(=O)(=O)Nc2ccc(-c3ccc(N4CCCCC4)nn3)cc2)c(C)cc1Cl` | -19.41 |
| 57 | `COCCCNC(=O)c1cnc2sc(N3CCCCC3)nn2c1=O` | -4.485 |
| 58 | `CC1CCN(c2nn3c(=O)c(C(=O)NCCc4ccccc4)cnc3s2)CC1` | -11.77 |
| 59 | `Cc1ccc2oc(-c3ccc(Cl)c(NC(=O)Cc4ccccc4)c3)nc2c1` | -6.381 |
| 60 | `O=C(C1CCN(S(=O)(=O)Cc2ccccc2)CC1)N1CCN(c2ccccc2F)CC1` | -17.56 |
| 61 | `COc1cc(C2C(=O)N(C3CCCCC3)CC(=O)N2CCC2=CCCCC2)ccc1OC(C)C` (configuration not stated) | -11.54 |
| 62 | `O=C(Nc1ccccc1C(F)(F)F)c1cc2ccccn2n1` | 41.67 |
| 63 | `Cc1c(NC(=O)Nc2ccc(Cl)c(Cl)c2)sc2nc3n(c(=O)c12)CCC(C)CC3` (configuration not stated) | -9.207 |
| 64 | `COc1cc(NC(=O)c2noc3c2CCc2ccccc2-3)cc(OC)c1OC` | -29.51 |
| 65 | `Cc1cccc(NC(=O)c2cc3c(=O)n(Cc4ccco4)ccc3nc2C)c1` | -40.19 |
| 66 | `Cc1c(NC(=O)c2cc(-c3ccccc3O)on2)c(=O)n(-c2ccccc2)n1C` | -4.167 |
| 67 | `COc1ccc(NC(=O)CC2C(=O)N(c3ccc(F)cc3)C(=O)N2Cc2cccnc2)cc1` (configuration not stated) | -12.3 |
| 68 | `O=C(NCCSCc1ccc(Cl)cc1)C1CCN(S(=O)(=O)Cc2ccccc2)CC1` | -24.22 |
| 69 | `CCOC(=O)c1ccc(N2CCN(c3cc(C)ccc3C)CC2)c(NC(=O)Nc2ccc(CC)cc2)c1` | -6.655 |
| 70 | `CCCc1cc(C(=O)Nc2c(C)nn(Cc3ccc(Cl)c(Cl)c3)c2C)no1` | -73.86 |
| 71 | `Cc1cccc(CNC(=O)Cn2nc(C)n3c(cc4cc(F)ccc43)c2=O)c1` | -17.48 |
| 72 | `CCc1cccc(CC)c1NC(=O)c1c(C)oc2ccc(O)c(CN3CCN(C)CC3)c12` | -11.32 |
| 73 | `CCCc1cc(=O)[nH]c(Nc2ccccc2O)n1` | -9.831 |
| 74 | `COc1ccc(NC(=O)CC2C(=O)N(c3ccccc3)C(=O)N2Cc2cccnc2)cc1` (configuration not stated) | -9.555 |
| 75 | `COC(=O)c1cc2oc3ccccc3c2n1Cc1nc(-c2ccccc2Cl)oc1C` | -9.025 |
| 76 | `COC(=O)c1ccccc1NC(=O)c1cc2ccccn2n1` | 16.44 |
| 77 | `O=C(CC(c1cccs1)N1Cc2ccccc2C1=O)Nc1ccc(Cl)cc1` (configuration not stated) | -36.54 |

Once more, the final 6:

| structure | activity change (%) |
|---|---|
| `CCc1cccc(CC)c1NC(=O)c1c(C)oc2ccc(O)c(CN3CCN(C)CC3)c12` | -11.32 |
| `CCCc1cc(=O)[nH]c(Nc2ccccc2O)n1` | -9.831 |
| `COc1ccc(NC(=O)CC2C(=O)N(c3ccccc3)C(=O)N2Cc2cccnc2)cc1` (configuration not stated) | -9.555 |
| `COC(=O)c1cc2oc3ccccc3c2n1Cc1nc(-c2ccccc2Cl)oc1C` | -9.025 |
| `COC(=O)c1ccccc1NC(=O)c1cc2ccccn2n1` | 16.44 |
| `O=C(CC(c1cccs1)N1Cc2ccccc2C1=O)Nc1ccc(Cl)cc1` (configuration not stated) | -36.54 |